No constants are given. Whether binding was seen depends on the method and setting. For some assays here: Binding seen in cells or lysates may run through a third protein. Some results given as binding are weak or reduced against the parent protein; the word gives no strength. Tags and fused reporters may be left off the sequences shown.

The target of assay [1] is T1, GST-Cab3, recombinant (S. cerevisiae) (UniProt P36076).
T1 sequence: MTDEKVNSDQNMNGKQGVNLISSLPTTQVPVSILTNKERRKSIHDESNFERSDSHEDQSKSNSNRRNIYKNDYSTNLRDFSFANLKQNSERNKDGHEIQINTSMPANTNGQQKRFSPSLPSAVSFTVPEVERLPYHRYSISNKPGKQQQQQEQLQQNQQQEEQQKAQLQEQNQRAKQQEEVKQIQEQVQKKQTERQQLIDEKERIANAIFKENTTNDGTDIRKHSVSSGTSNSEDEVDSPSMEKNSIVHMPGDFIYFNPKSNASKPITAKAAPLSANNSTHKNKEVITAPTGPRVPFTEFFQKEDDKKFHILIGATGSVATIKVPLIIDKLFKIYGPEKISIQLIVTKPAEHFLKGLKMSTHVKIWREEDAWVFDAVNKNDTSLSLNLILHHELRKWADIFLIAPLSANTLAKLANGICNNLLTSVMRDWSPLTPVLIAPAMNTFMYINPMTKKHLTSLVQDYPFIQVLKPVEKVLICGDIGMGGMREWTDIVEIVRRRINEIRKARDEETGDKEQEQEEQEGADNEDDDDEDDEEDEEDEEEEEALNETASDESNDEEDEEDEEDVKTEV
Nature of the assay: pull-down; 10 ug GST-Cab3 on glutathione beads, 2 mg protein extract of IM021 yeast expressing HA-tagged ScHal3 versions, anti-HA immunoblot; only the target purified. In general terms: A western blot detects proteins with antibodies after separation by electrophoresis.

Assay [2] has as its target T2, GST-fused full length Ppz1 (S. cerevisiae, UniProt P26570 1-692).
T2 construct: Ser/Thr protein phosphatase Ppz1, S. cerevisiae, full length; also called GST-Ppz1; source: E. coli BL21 (DE3) RIL, purified on glutathione-agarose
T2 sequence (looked up): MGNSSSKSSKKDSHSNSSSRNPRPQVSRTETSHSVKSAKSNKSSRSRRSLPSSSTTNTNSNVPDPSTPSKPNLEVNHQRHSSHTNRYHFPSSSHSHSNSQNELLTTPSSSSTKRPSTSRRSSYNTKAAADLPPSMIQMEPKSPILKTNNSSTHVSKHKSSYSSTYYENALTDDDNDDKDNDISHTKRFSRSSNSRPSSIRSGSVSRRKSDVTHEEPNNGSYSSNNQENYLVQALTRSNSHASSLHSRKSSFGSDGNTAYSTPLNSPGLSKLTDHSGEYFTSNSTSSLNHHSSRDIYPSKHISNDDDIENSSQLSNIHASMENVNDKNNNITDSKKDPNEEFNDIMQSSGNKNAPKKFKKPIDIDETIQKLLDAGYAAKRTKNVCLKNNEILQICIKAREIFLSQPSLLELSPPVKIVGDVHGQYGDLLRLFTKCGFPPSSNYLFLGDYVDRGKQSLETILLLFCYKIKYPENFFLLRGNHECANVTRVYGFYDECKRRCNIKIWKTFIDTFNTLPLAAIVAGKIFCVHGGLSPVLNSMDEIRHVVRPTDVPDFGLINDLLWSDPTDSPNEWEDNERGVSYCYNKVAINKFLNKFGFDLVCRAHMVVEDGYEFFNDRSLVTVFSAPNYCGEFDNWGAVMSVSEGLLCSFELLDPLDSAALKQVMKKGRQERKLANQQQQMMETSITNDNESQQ
Nature of the assay: pull-down; 4 ug GST-Ppz1 or GST-Ppz1-Cter on glutathione-agarose beads, 600 ug protein extract of IM021 yeast expressing HA-tagged ScHal3 versions, anti-HA immunoblot; signal related to Ponceau-stained bait, native ScHal3 as the unit; only the target purified.

Assay [3] concerns the target ScHal3 L403N L405E, recombinant, GST removed (S. cerevisiae) (UniProt P36024). In words: cross-linking; purified GST-free proteins (1 or 2 ug) treated with 0.01% glutaraldehyde, SDS-PAGE, Coomassie staining; both purified.
For assay [4] the target is unchanged. Nature of the assay: SEC; Superdex 200 HR 10/30, 500 ul at 0.2–0.4 mg/ml of GST-free protein, 10 mM Tris-HCl pH 7.5, 150 mM NaCl, 2 mM DTT, 0.75 ml/min; both purified. In general terms: Size exclusion chromatography separates by hydrodynamic size, large species first.
In assay [5] the target is T3, GST-fused Ppz1-Cter (Δ1–344) catalytic moiety (S. cerevisiae) (UniProt P26570).
T3 sequence: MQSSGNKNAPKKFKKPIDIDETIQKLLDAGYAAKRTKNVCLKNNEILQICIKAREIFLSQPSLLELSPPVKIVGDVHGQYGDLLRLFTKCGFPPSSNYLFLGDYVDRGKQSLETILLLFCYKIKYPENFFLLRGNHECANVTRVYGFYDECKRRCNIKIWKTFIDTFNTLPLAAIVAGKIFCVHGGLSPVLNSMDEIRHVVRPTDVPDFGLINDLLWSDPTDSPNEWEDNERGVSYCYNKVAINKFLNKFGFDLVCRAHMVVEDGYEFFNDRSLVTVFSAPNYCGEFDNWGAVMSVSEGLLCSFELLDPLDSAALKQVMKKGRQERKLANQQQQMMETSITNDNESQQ
In words: pull-down; 4 ug GST-Ppz1 or GST-Ppz1-Cter on glutathione-agarose beads, 600 ug protein extract of IM021 yeast expressing HA-tagged ScHal3 versions, anti-HA immunoblot; signal related to Ponceau-stained bait, native ScHal3 as the unit; only the target purified.

B1: ScHal3 L403N, recombinant, GST removed (natural protein, S. cerevisiae, UniProt P36024 1-562, looked up)
chain: MTAVASTSGKQDADHNQSIECPRFSRGQKEILLDHEDAKGKDSIINSPVSGRQSISPTLSNATTTTTKSIMNATGTSGAVVSNTPEPGLKRVPAVTFSDLKQQQKQDSLTQLKNDSERTKSPNSNPAPVSNSIPGNHAVIPNHTNTSRTTQLSGSPLVNEMKDYDPKKKDSALKIVDTMKPDKIMATSTPISRENNKVTAKAPTSITLRKEDAQDQANNVSGQINVRSTPEETPVKQSVIPSIIPKRENSKNLDPRLPQDDGKLHVLFGATGSLSVFKIKPMIKKLEEIYGRDRISIQVILTQSATQFFEQRYTKKIIKSSEKLNKMSQYESTPATPVTPTPGQCNMAQVVELPPHIQLWTDQDEWDAWKQRTDPVLHIELRRWADILVVAPLTANTLSKIANGLCDNLLTSVIRAWNPSYPILLAPSMVSSTFNSMMTKKQLQTIKEEMSWVTVFKPSEKVMDINGDIGLGGMMDWNEIVNKIVMKLGGYPKNNEEEDDDEDEEEDDDEEEDTEDKNENNNDDDDDDDDDDDDDDDDDDDDDDDDEDEDEAETPGIIDKHQ
notes: Hal3 (Sis2), S. cerevisiae, in pGEX-6P-1 with L403N; also called the L403 variant; source: E. coli BL21 (DE3) RIL, GST fusion purified on glutathione-agarose, GST cleaved with PreScission protease
For B1, the binding result in assay [1] and in assay [2] was “binds” throughout.

B2: ScHal3 L403N L405E, recombinant, GST removed (protein, UniProt P36024 1-562)
chain: MTAVASTSGKQDADHNQSIECPRFSRGQKEILLDHEDAKGKDSIINSPVSGRQSISPTLSNATTTTTKSIMNATGTSGAVVSNTPEPGLKRVPAVTFSDLKQQQKQDSLTQLKNDSERTKSPNSNPAPVSNSIPGNHAVIPNHTNTSRTTQLSGSPLVNEMKDYDPKKKDSALKIVDTMKPDKIMATSTPISRENNKVTAKAPTSITLRKEDAQDQANNVSGQINVRSTPEETPVKQSVIPSIIPKRENSKNLDPRLPQDDGKLHVLFGATGSLSVFKIKPMIKKLEEIYGRDRISIQVILTQSATQFFEQRYTKKIIKSSEKLNKMSQYESTPATPVTPTPGQCNMAQVVELPPHIQLWTDQDEWDAWKQRTDPVLHIELRRWADILVVAPLTANTLSKIANGECDNLLTSVIRAWNPSYPILLAPSMVSSTFNSMMTKKQLQTIKEEMSWVTVFKPSEKVMDINGDIGLGGMMDWNEIVNKIVMKLGGYPKNNEEEDDDEDEEEDDDEEEDTEDKNENNNDDDDDDDDDDDDDDDDDDDDDDDDEDEDEAETPGIIDKHQ
Turning to B2, the binding result in assay [3] and in assay [4] was “no binding” each time.

B3: S. cerevisiae Hal3 (ScHal3), native, recombinant, GST removed (natural protein, UniProt P36024 1-562, looked up)
chain: MTAVASTSGKQDADHNQSIECPRFSRGQKEILLDHEDAKGKDSIINSPVSGRQSISPTLSNATTTTTKSIMNATGTSGAVVSNTPEPGLKRVPAVTFSDLKQQQKQDSLTQLKNDSERTKSPNSNPAPVSNSIPGNHAVIPNHTNTSRTTQLSGSPLVNEMKDYDPKKKDSALKIVDTMKPDKIMATSTPISRENNKVTAKAPTSITLRKEDAQDQANNVSGQINVRSTPEETPVKQSVIPSIIPKRENSKNLDPRLPQDDGKLHVLFGATGSLSVFKIKPMIKKLEEIYGRDRISIQVILTQSATQFFEQRYTKKIIKSSEKLNKMSQYESTPATPVTPTPGQCNMAQVVELPPHIQLWTDQDEWDAWKQRTDPVLHIELRRWADILVVAPLTANTLSKIALGLCDNLLTSVIRAWNPSYPILLAPSMVSSTFNSMMTKKQLQTIKEEMSWVTVFKPSEKVMDINGDIGLGGMMDWNEIVNKIVMKLGGYPKNNEEEDDDEDEEEDDDEEEDTEDKNENNNDDDDDDDDDDDDDDDDDDDDDDDDEDEDEAETPGIIDKHQ
notes: the methods speak of 'each full-length recombinant protein' and the predicted homotrimer is ~190 kDa; also called native ScHal3; WT; source: E. coli BL21 (DE3) RIL, GST fusion purified on glutathione-agarose, GST cleaved with PreScission protease
Consider B3, for which the binding result in assay [1], in assay [5] and in assay [2] was “binds” throughout.

B4: HA-tagged ScHal3 L405E expressed in S. cerevisiae from pWS93 (natural protein, UniProt P36024 1-562, looked up)
chain: MTAVASTSGKQDADHNQSIECPRFSRGQKEILLDHEDAKGKDSIINSPVSGRQSISPTLSNATTTTTKSIMNATGTSGAVVSNTPEPGLKRVPAVTFSDLKQQQKQDSLTQLKNDSERTKSPNSNPAPVSNSIPGNHAVIPNHTNTSRTTQLSGSPLVNEMKDYDPKKKDSALKIVDTMKPDKIMATSTPISRENNKVTAKAPTSITLRKEDAQDQANNVSGQINVRSTPEETPVKQSVIPSIIPKRENSKNLDPRLPQDDGKLHVLFGATGSLSVFKIKPMIKKLEEIYGRDRISIQVILTQSATQFFEQRYTKKIIKSSEKLNKMSQYESTPATPVTPTPGQCNMAQVVELPPHIQLWTDQDEWDAWKQRTDPVLHIELRRWADILVVAPLTANTLSKIALGECDNLLTSVIRAWNPSYPILLAPSMVSSTFNSMMTKKQLQTIKEEMSWVTVFKPSEKVMDINGDIGLGGMMDWNEIVNKIVMKLGGYPKNNEEEDDDEDEEEDDDEEEDTEDKNENNNDDDDDDDDDDDDDDDDDDDDDDDDEDEDEAETPGIIDKHQ
notes: Hal3 (Sis2), S. cerevisiae, with L405E; insert released from the pGEX construct and cloned into pWS93; source: S. cerevisiae IM021 (ppz1 hal3), expressed from pWS93, in protein extract
For B4, the binding result in assay [1] and in assay [5] was “binds” throughout.

B5: HA-tagged ScHal3 L403N L405E expressed in S. cerevisiae from pWS93 (natural protein, UniProt P36024 1-562, looked up)
chain: MTAVASTSGKQDADHNQSIECPRFSRGQKEILLDHEDAKGKDSIINSPVSGRQSISPTLSNATTTTTKSIMNATGTSGAVVSNTPEPGLKRVPAVTFSDLKQQQKQDSLTQLKNDSERTKSPNSNPAPVSNSIPGNHAVIPNHTNTSRTTQLSGSPLVNEMKDYDPKKKDSALKIVDTMKPDKIMATSTPISRENNKVTAKAPTSITLRKEDAQDQANNVSGQINVRSTPEETPVKQSVIPSIIPKRENSKNLDPRLPQDDGKLHVLFGATGSLSVFKIKPMIKKLEEIYGRDRISIQVILTQSATQFFEQRYTKKIIKSSEKLNKMSQYESTPATPVTPTPGQCNMAQVVELPPHIQLWTDQDEWDAWKQRTDPVLHIELRRWADILVVAPLTANTLSKIANGECDNLLTSVIRAWNPSYPILLAPSMVSSTFNSMMTKKQLQTIKEEMSWVTVFKPSEKVMDINGDIGLGGMMDWNEIVNKIVMKLGGYPKNNEEEDDDEDEEEDDDEEEDTEDKNENNNDDDDDDDDDDDDDDDDDDDDDDDDEDEDEAETPGIIDKHQ
notes: Hal3 (Sis2), S. cerevisiae, with L403N and L405E; insert released from the pGEX construct and cloned into pWS93; also called the double mutated variant; source: S. cerevisiae IM021 (ppz1 hal3), expressed from pWS93, in protein extract
B5: the binding entry in assay [1] and in assay [5] was “binds” in each case.

These data come from PMC6168597, “Mutations at the hydrophobic core affect Hal3 trimer stability, reducing its Ppz1 inhibitory capacity but not its PPCDC moonlighting function” (Scientific Reports, 2018).
